One assay deals with T1, 16-23.
T1 sequence (peptide): QMAVKKYL
In words: SPR (Biacore 3000), solution competition with the peptide for antibody binding to immobilised full-length PACAP38; % inhibition. A general note: Surface plasmon resonance follows binding to a sensor surface in real time, without labels.

For the next assay, the target named is T2, 9-18.
T2 sequence (peptide): SYSRYRKQMA
The assay is described as above.

A further assay deals with T3, 19-25.
T3 sequence (peptide): VKKYLAA
The assay is described as above.

Assay [1] addresses T4, PACAP38 peptide fragment 26-33 (human).
T4 construct: also called peptide No. 2
T4 peptide: VLGKRYKQ
Described as above.

Assay [2] has as its target T4, PACAP38 peptide fragment 26-33. In words: SPR (Biacore 3000) solution competition against immobilised PACAP38.
Assay [3] has as its target T5, amino terminal PACAP38 peptide (amino acids 1-13) (human).
T5 sequence (peptide): HSDGIFTDSYSRY
The assay can be described thus: SPR (Biacore 3000) solution competition against immobilised PACAP38; purified recombinant mAb5; peptide-fragment inhibition of binding to full-length PACAP38 (epitope mapping), not the ELISA screen.

These are yes or no findings as the source states them, for the method shown. Ends that are not written are not given here.

B1: mAb4 (antibody, V domains shown)
VH: QSVEESGGRLVTPGTPLTLTCTASGIDLSSYAMIWVRQAPGEGLEYIGFIDAGDGNTYYASWAKGRFTISKTSTTVDLKITSPTTEDTATYFCARGDPGWSNGFALWGQGTLVTVSS
VL: DIVMTQTPASVSGAVGGTVTIKCQASQSIRNELSWYQQKPGQPPKLLIYKASTLASGVPSRFSGSGFGTEFTLTISGVQCDDAATYYCQNNYGTRRNNYVFPFGGGTEVVVKG
notes: Rabbit monoclonal antibody (SLAM), recombinant; also called monoclonal anti-PACAP antibody 4; 4 (c47)
Consider B1, for which the binding result (with 16-23; with 9-18; with 19-25; in assay [1]) was “no binding (tested: 1:200 molar ratio (Ab:peptide))” throughout.

B2: mAb2 (antibody, V domains shown)
VH: QSLEESGGGLVQPEGSLTLTCTASGFSFNSSSYMCWVRQAPGKGLEWIGCIFTGSSGNTYYATWAQGRFTISKTSTTVTLEMTSLTAADTATYFCARDRAYFLVGYFYATYYFDLWGPGTLVTVSS
VL: DVVMTQTPSPVSAQVGGTVTINCQASESIDSDLSWYQQKPGQPPKLLIYRTFTLESGVPSRFKGSGSGTDYTLTISDLECADAAIYYCQCTDGSSISGSYGWDAFGGGTEVVVKG
notes: Rabbit monoclonal antibody (SLAM), recombinant; also called monoclonal anti-PACAP antibody 2; 2 (c81)
Turning to B2, the binding result in assay [2] is on record as “no binding (tested: 1:200 molar ratio (Ab: peptide fragment))”; with 16-23, “no binding (tested: 1:200 molar ratio (Ab:peptide))”; with 9-18, “no binding (tested: 1:200 molar ratio (Ab:peptide))”; with 19-25, “no binding (tested: 1:200 molar ratio (Ab:peptide))”; in assay [1], “no binding (tested: 1:200 molar ratio (Ab:peptide))”.

B3: mAb5 (antibody, V domains shown)
VH: QSVEESGGRLVTPGTPLTLTCTVSGFSLSTYNMCWVRQAPGKGLEWVGFINSDDSAYYASWAKGRFTFSKTSTTVDLKIASPTTEDTATYFCARYDWDYYYSRLDLWGPGTLVTVSS
VL: DIVLTQTPASVSAAVGGTVSISCQSSESVYNNNYLSWFQQKPGQPPKLLIYGASTLASGVPSRFEGSGSGTQFTLTISDVQCDDAATYYCLGDYIIIENIFGGGTEVVVKG
notes: Rabbit monoclonal antibody (SLAM), recombinant; also called monoclonal anti-PACAP antibody 5; 5 (c71)
B3: the binding entry in assay [3] is “no binding (tested: 1:200 molar ratio (Ab: peptide fragment))”; with 16-23, “no binding (tested: 1:200 molar ratio (Ab:peptide))”; with 9-18, “no binding (tested: 1:200 molar ratio (Ab:peptide))”; with 19-25, “no binding (tested: 1:200 molar ratio (Ab:peptide))”.

B4: mAb3 (antibody, V domains shown)
VH: QSLEESGGGLVQPGASLTLTCTASGFSFSSNYYMCWVRQAPGKGLEWIACIFTGSSGSTYYASWAKGRFTISKTSSTTVTLHVTSLTAADTATYFCARDRALSVVGYFYAAYYFDFWGPGTLVTVSS
VL: DVVMTQTPSPVSAAVGGTVTINCRASEDIESFLAWYQQKPGQPPKLLMSRTSTLESGVPSRFKGSGSGTEFTLTISDLECADAATYYCQCTDGSSSSSSYGWDAFGGGTEVVVKG
notes: Rabbit monoclonal antibody (SLAM), recombinant; also called monoclonal anti-PACAP antibody 3; 3 (c89)
As for B4, the binding entry (with 16-23; with 9-18; with 19-25; in assay [1]) was “no binding (tested: 1:200 molar ratio (Ab:peptide))” throughout.

B5: mAb1 (antibody, V domains shown)
VH: QSLEESGGDLVKPGASLTLTCKASGIAFSNDYMCWVRQAPGKGLEWIACIFTGSSGSTYYASWAKGRFTISKTSSTTVTLQMTSLTAADTATYFCARDRAISVLGYFYAAYFFDFWGPGTLVTVSS
VL: DVVMTQTPSPVSAAVGGTVTINCRASEDIESFLAWYQQKPGQPPKLLISRTSTLESGVSSRFKGSGSGTEFILTISDLECADAATYYCQCTDGSSSSSSYGWDAFGGGTEVVVKG
notes: Rabbit monoclonal antibody (SLAM), cloned, recombinantly expressed and purified; also called monoclonal anti-PACAP antibody 1; 1 (c20)
As for B5, the binding result with 16-23 and with 9-18 was “no binding (tested: 1:200 molar ratio (Ab:peptide))” throughout.

B6: mAb6 (antibody, V domains shown)
VH: QLEESGGGLVQPGASLTLTCTTSGFSLSDNYLCWVRQAPGRGLEWVACIGIVLRSTGATYYASWAEGRFTISKTSPTTVTLEMTSLTAADTATYFCALDLGYGGPLWGPGTLVTVSS
VL: AQVLTQTPASVSAAVGGTVTINCQASQSVYNNKNLAWYQQKPGQPPKLLIYFSSTLASGVPSRFRGSGSGTQFTLTISGVQCGDAATYYCLGEFGSIWAFGGGTEVVVKG
notes: Rabbit monoclonal antibody (SLAM), recombinant; also called monoclonal anti-PACAP antibody 6; 6 (c55)
With B6, the binding entry in assay [2] is “no binding (tested: 1:200 molar ratio (Ab: peptide fragment))”; with 16-23 it was “no binding (tested: 1:200 molar ratio (Ab:peptide))”; in the assay with 9-18, “no binding (tested: 1:200 molar ratio (Ab:peptide))”; with 19-25, “no binding (tested: 1:200 molar ratio (Ab:peptide))”; in assay [1], “no binding (tested: 1:200 molar ratio (Ab:peptide))”.
